Data as given in PubChem BioAssay AID1508597 (Cure First, 2020)
Aim: 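Knock-downs altering ovarian cancer cell survival with or without PARP inhibitor rucaparib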 (primary screen). Cell system: human ovarian carcinoma lines grown from tumours: OCI-P5x (papillary serous) and OCI-C5x (clear cell). Reagents: siRNA pool against human genes, 1.25 pmol siRNA per well. Duration: 72 h or 96 h, depending on the cell culture. Challenge: rucaparib 20 µM (about IC30) or vehicle, present until read-out. Rucaparib or vehicle: Rucaparib. Cell line: OCI-C5x (clear cell). Measured: 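Luminescent ATP-based viability assay read 72 or 96 h after transfection, depending on culture, given as normalised percent viability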. Reading the numbers: viability, normalised: higher = more viable cells remaining. Rule for the call: 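Active when normalised viability falls below 80 percent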. Calls: active = viability under 80%; inactive = viability 80% or more.
This is a random part of the about 2,100 reagents, under one of the conditions tested. 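Calls flag viability under 80% in either arm, not effects specific to rucaparib; the reference for percent is not stated.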 Some reagents were tested in more than one well and are listed for each. Not given: the 100% reference.

MAP3K6 (GeneID 9064), technical replicate 1 gave viability, normalised (%) = 52.5; active. With MAP3K6 (GeneID 9064), technical replicate 2, the entry reads viability, normalised (%) = 75.4; active. For MAP3K6 (GeneID 9064), technical replicate 3, the entry reads viability, normalised (%) = 72.6; active. CACNA1A (GeneID 773), technical replicate 1 showed viability, normalised (%) = 59.2; active. With CACNA1A (GeneID 773), technical replicate 2 the deposit lists viability, normalised (%) = 36.3; active. For CACNA1A (GeneID 773), technical replicate 3, the values are viability, normalised (%) = 48.2; active.

With ACTL6B (GeneID 51412), technical replicate 1, the entry reads viability, normalised (%) = 63.9; active. ACTL6B (GeneID 51412), technical replicate 2 scored viability, normalised (%) = 56.5; active. ACTL6B (GeneID 51412), technical replicate 3 scored viability, normalised (%) = 56; active. For SMN2 (GeneID 6607), technical replicate 1, the values are viability, normalised (%) = 48; active. With SMN2 (GeneID 6607), technical replicate 2, the entry reads viability, normalised (%) = 32.6; active. SMN2 (GeneID 6607), technical replicate 3 scored viability, normalised (%) = 37.3; active.

For PAK1 (GeneID 5058), technical replicate 1 the deposit lists viability, normalised (%) = 72.2; active. With PAK1 (GeneID 5058), technical replicate 2, the entry reads viability, normalised (%) = 72.4; active. With PAK1 (GeneID 5058), technical replicate 3, the entry reads viability, normalised (%) = 73.2; active.

4 successive records already listed, for reference:
ACTL6B (GeneID 51412), technical replicate 3: viability, normalised (%) = 56; activity call = active
SMN2 (GeneID 6607), technical replicate 1: viability, normalised (%) = 48; activity call = active
SMN2 (GeneID 6607), technical replicate 2: viability, normalised (%) = 32.6; activity call = active
SMN2 (GeneID 6607), technical replicate 3: viability, normalised (%) = 37.3; activity call = active

Further records:
EPHA10 (GeneID 284656), technical replicate 1 showed viability, normalised (%) = 60.4; active. EPHA10 (GeneID 284656), technical replicate 2 scored viability, normalised (%) = 64.1; active. EPHA10 (GeneID 284656), technical replicate 3 gave viability, normalised (%) = 53.7; active. With NR4A2 (GeneID 4929), technical replicate 1, the values are viability, normalised (%) = 40.8; active. For NR4A2 (GeneID 4929), technical replicate 2, the entry reads viability, normalised (%) = 38.5; active. For NR4A2 (GeneID 4929), technical replicate 3, the entry reads viability, normalised (%) = 28.6; active.

For STRADB (GeneID 55437), technical replicate 1, the entry reads viability, normalised (%) = 49.8; active. STRADB (GeneID 55437), technical replicate 2 showed viability, normalised (%) = 48.8; active. With STRADB (GeneID 55437), technical replicate 3, the values are viability, normalised (%) = 37.5; active. CSNK1G2 (GeneID 1455), technical replicate 1 gave viability, normalised (%) = 69.3; active. For CSNK1G2 (GeneID 1455), technical replicate 2, the values are viability, normalised (%) = 67.1; active. For CSNK1G2 (GeneID 1455), technical replicate 3, the entry reads viability, normalised (%) = 77.8; active.

PAK3 (GeneID 5063), technical replicate 1 gave viability, normalised (%) = 68.6; active. PAK3 (GeneID 5063), technical replicate 2 showed viability, normalised (%) = 52.8; active. For PAK3 (GeneID 5063), technical replicate 3, the values are viability, normalised (%) = 62; active. AMELX (GeneID 265), technical replicate 1 gave viability, normalised (%) = 40.5; active. AMELX (GeneID 265), technical replicate 2 gave viability, normalised (%) = 43.8; active. With AMELX (GeneID 265), technical replicate 3, the entry reads viability, normalised (%) = 43.2; active.

For CHEK2 (GeneID 11200), technical replicate 1 the deposit lists viability, normalised (%) = 65.2; active. CHEK2 (GeneID 11200), technical replicate 1 gave viability, normalised (%) = 62.6; active. For CHEK2 (GeneID 11200), technical replicate 2, the entry reads viability, normalised (%) = 69.6; active. CHEK2 (GeneID 11200), technical replicate 2 gave viability, normalised (%) = 45.7; active. CHEK2 (GeneID 11200), technical replicate 3 scored viability, normalised (%) = 62.2; active. CHEK2 (GeneID 11200), technical replicate 3 scored viability, normalised (%) = 64.7; active.

HELLS (GeneID 3070), technical replicate 1 scored viability, normalised (%) = 43; active. With HELLS (GeneID 3070), technical replicate 2, the entry reads viability, normalised (%) = 35; active. With HELLS (GeneID 3070), technical replicate 3, the entry reads viability, normalised (%) = 47.2; active.
